# PubChem BioAssay AID540276 (National Center for Advancing Translational Sciences (NCATS), 2011)
# Several values for one entry are separate records, joined by “and”; a condition that tells them apart may be missing. Identical values can stand only once. The whole screen tested about 300,000 compounds, of which about 5,400 (1.8%) were called active. This list was built around the results that the source calls inconclusive (neither active nor inactive); the mix of calls is not that of the screen. Calls come from the whole dose curve; tested in HEK293 cells. Where the call is inconclusive, the potency comes from a doubtful curve fit.
# Test: qHTS for inhibitors of binding or entry into cells for Marburg Virus
# Conditions: Marburg virus pseudotyped entry inhibition, cell reporter; series mostly up to 37.8 µM
# Potency is the fitted concentration of half-maximal effect.
row,Structure (SMILES),Potency
1,C=CCn1c(=N)n(CC(=O)c2ccc(Br)s2)c2ccccc21,"inconclusive: 20.6 µM [inhibitor, partial curve, poor fit]"
2,Cc1ccc(NC(=S)NC(=O)Cc2ccccc2)c(O)c1,inactive
3,C=CCn1cccc(C(=O)Nc2ccc(OCC)cc2)c1=O,inactive
4,CCC(=O)OC1CC(C)N(C(=O)c2ccccc2)c2ccc(C)cc21 (stereo unspecified),"inconclusive: 17.8 µM [inhibitor, single point]"
5,COC(=O)c1ccc(OC(=O)CCN2C(=O)C3C4c5ccccc5C(c5ccccc54)C3C2=O)cc1 (stereo unspecified),"inconclusive: 0.0891 µM [activator, full curve, poor fit]"
6,CC(C)n1cc(/C=N/Nc2ccc(C(=O)O)cc2)c2ccccc21,inactive
7,COc1ccc(Nc2nc(N3CCCCC3)nc3ccccc23)c(OC)c1,"inconclusive: 29.1 µM [inhibitor, single point]"
8,CC1CC2=C(NC(=S)NC2c2cccc(F)c2)/C(=C/c2cccc(F)c2)C1 (stereo unspecified),"inconclusive: 10 µM [inhibitor, partial curve, poor fit]"
9,c1ccc(-c2nc(NC3CCCC3)c3ccccc3n2)cc1,"inconclusive: 20 µM [inhibitor, partial curve, poor fit]"
10,C/C(=N\OCc1ccc(C#N)cc1)c1cc2ccccc2o1,"inconclusive: 35.5 µM [inhibitor, single point]"
11,CNC(=O)c1sc(N2N=C3/C(=C\c4ccccc4)CCCC3C2c2ccccc2)nc1C (stereo unspecified),"inconclusive: 1.58 µM [inhibitor, partial curve, poor fit]"
12,O=C(N/N=C/c1cc(Cl)cc([N+](=O)[O-])c1O)c1cccc(S(=O)(=O)N2CCOCC2)c1,"inconclusive: 22.4 µM [inhibitor, single point]"
13,Cc1ccc(NC(=O)COC(=O)C2CC(=O)N(Cc3ccccc3)C2)cc1F (stereo unspecified),"inconclusive: 0.562 µM [inhibitor, full curve, poor fit]"
14,COC(=O)c1ccc(OC)c(CN2CCCN(Cc3cc(C)ccc3C)S2(=O)=O)c1,inactive
15,CCCCCCNCc1ccc(Br)cc1,"inconclusive: 20.6 µM [inhibitor, partial curve, poor fit]"
16,N/C(=N\OC(=O)CC1CCCCC1)c1ccccn1,inactive
17,COC(=O)c1ccc(CSc2nnc(C)s2)cc1,"inconclusive: 11.2 µM [activator, partial curve, poor fit]"
18,CCN1C(=O)C(O)(c2c(C)[nH]c3ccccc23)c2ccccc21 (stereo unspecified),"inconclusive: 1.12 µM [inhibitor, full curve, poor fit]"
19,O=C(c1ccccc1)C(O)(CN1CCCCC1)c1ccccc1 (stereo unspecified),inactive
20,CCn1c(CNC(=O)c2ccccc2F)nnc1SCCOc1ccccc1,"inconclusive: 2.82 µM [inhibitor, single point]"
21,Cc1cc(F)ccc1S(=O)(=O)Nc1ccccc1C(=O)Nc1ccccc1-c1nc2ccccc2[nH]1,"inconclusive: 20.6 µM [inhibitor, single point]"
22,COc1cccc(N/C(SC)=C(/C#N)C(N)=O)c1,"inconclusive: 25.9 µM [inhibitor, single point]"

row,Structure (SMILES),Potency
1,CCOC(=O)c1sc(NC(=O)CSc2nncn2C)nc1C,inactive
2,CCOC(=O)c1cnc(Nc2nc3ccccc3o2)nc1CSc1nnc(C)s1,"inconclusive: 6.51 µM [inhibitor, full curve]"
3,CCCCn1nc(C(=O)NC2CCCCCC2)c2ccccc2c1=O,"inconclusive: 0.501 µM [inhibitor, partial curve, poor fit]"
4,CCc1ccc(-c2csc(NC(=O)C3CC(=O)N(c4ccc5c(c4)OCCO5)C3)n2)cc1 (stereo unspecified),"inconclusive: 35.5 µM [inhibitor, partial curve, poor fit]"
5,O=S(=O)(c1ccc(Cl)cc1)n1c(Cc2ccccc2)nc2ccccc21,"inconclusive: 0.58 µM [inhibitor, single point]"
6,O=C1C2=C(Nc3ccccc3SC2c2c(F)cccc2Cl)c2ccccc21 (stereo unspecified),inactive
7,O=C(CN1C(=O)c2ccccc2C1=O)NNC1=NS(=O)(=O)c2ccccc21,"inconclusive: 4.47 µM [activator, full curve, poor fit]"
8,Cc1ccccc1NC(=O)C1(C)Cc2ccccc2C(=O)O1 (stereo unspecified),"inconclusive: 15.8 µM [activator, partial curve, poor fit]"
9,NNC(=O)c1ccc(O)cc1O,inactive
10,Cc1cccc(-n2cc(CNCCN3CCOC3=O)c(-c3cccc(F)c3)n2)c1,"inconclusive: 11.2 µM [inhibitor, partial curve, poor fit]"
11,O=C(Nc1cccc(Cl)c1)Nc1sccc1-c1nc2ccccc2s1,"inconclusive: 20 µM [inhibitor, single point]"
12,COc1ccc(-c2cc(-c3nnc(COC(=O)CC4CCCC4)o3)c3ccccc3n2)cc1OC,"inconclusive: 9.2 µM [inhibitor, partial curve, poor fit]"
13,CCOC(=O)c1cnc(SCC(=O)NCc2cccs2)nc1N,inactive
14,Cc1sc(NC(=O)c2ccccc2F)c(CN2CCCCC2)c1C,inactive
15,N/C(=N\OC(=O)c1ccco1)c1ccc(Cl)cc1,"inconclusive: 5.62 µM [activator, single point]"
16,CC1(C)NC(=O)N(CC(=O)OCC(=O)N2CCN(S(=O)(=O)c3ccccc3)CC2)C1=O,"inconclusive: 5.01 µM [activator, partial curve]"
17,Cc1cc2oc(C(=O)Nc3cccc(-c4nc5ccccc5o4)c3)c(C)c2cc1Cl,inactive
18,O=C(Nc1ccc(Cl)cc1)c1ccc2c(c1)N(Cc1ccccc1)C(=O)c1ccccc1S2(=O)=O,"inconclusive: 20 µM [inhibitor, single point]"
19,O=C(NC(=S)Nc1ccc2c(c1)OCCO2)c1ccco1,"inconclusive: 10 µM [inhibitor, partial curve]"
20,C=C(C)C(=O)OC1(C(F)(F)F)Oc2cc(C)ccc2NC1=O (stereo unspecified),"inconclusive: 35.5 µM [inhibitor, single point]"
21,C/C(=N/NC(=O)c1cc(C2CC2)[nH]n1)c1cccs1,active: 10.3 µM
22,C[C@H]1CC[C@H]2C(=O)N3[C@H](c4ccccc4Br)[C@@H](C)CC[C@H]3C(=O)N2[C@@H]1c1ccccc1Br,"inconclusive: 10.3 µM [inhibitor, partial curve]"

row,Structure (SMILES),Potency
1,Cc1ccnc(NC(=O)Nc2ccc(Br)cc2Cl)c1,inactive
2,COc1ccc(OC)c(N=c2ssnc2Cl)c1,inactive
3,O=C(CSc1nc2ccccc2n1Cc1cccc(Cl)c1)N1CCN(c2ccc(F)cc2)CC1,inactive
4,COC(=O)c1c(NC(NC(=O)C(C)C)C(Cl)(Cl)Cl)sc2c1CCC2 (stereo unspecified),"inconclusive: 0.631 µM [activator, full curve, poor fit]"
5,O=S(=O)(NCc1ccc2c(c1)OCO2)c1c(F)cc(F)cc1Br,"inconclusive: 35.5 µM [activator, single point]"
6,CCn1c(C)nc2cc(C(=O)N/N=C/c3ccc(O)cc3)ccc21,"inconclusive: 0.708 µM [inhibitor, partial curve, poor fit]"
7,CC(=O)Cc1nsc(Nc2ccccc2)n1,"inconclusive: 0.0651 µM [inhibitor, full curve, poor fit]"
8,CC1CCN(CCCNC(=O)c2cc3sccc3n2C)CC1,"inconclusive: 29.1 µM [inhibitor, single point]"
9,O=C(COC(=O)CCNS(=O)(=O)c1ccccc1F)Nc1nnc(-c2ccccc2)o1,"inconclusive: 1.41 µM [activator, partial curve, poor fit]"
10,CCOC(=O)c1ccc(NC(=S)N(Cc2cccnc2)Cc2ccco2)cc1,"inconclusive: 35.5 µM [inhibitor, single point]"
11,CCc1nnc(NC(=O)c2ccc(-c3ccccc3Cl)o2)s1,"inconclusive: 25.9 µM [activator, single point]"
12,Cc1nn2c(-n3ccnc3C)c3c(nc2c1-c1ccccc1)CCC3,"inconclusive: 1.16 µM [inhibitor, partial curve, poor fit]"
13,CCOC(=O)C1(Cc2cccc(Cl)c2)CCCN(C(=O)c2cc(C(C)C)nn2C)C1 (stereo unspecified),"inconclusive: 35.5 µM [inhibitor, single point]"
14,CCC(C)c1ccc(S(=O)(=O)N2CC(=O)Nc3ccccc32)cc1 (stereo unspecified),"inconclusive: 0.794 µM [activator, full curve, poor fit]"
15,O=C(Nc1ccc(Cl)cc1Cl)c1cccc(N2C(=O)C=CC2=O)c1,inactive
16,CCN(CC)S(=O)(=O)c1cc(C(=O)OCC(=O)Nc2ccc(-c3nc4ccc(C)cc4s3)cc2)ccc1F,"inactive and inconclusive: 2.51 µM [inhibitor, partial curve, poor fit]"
17,O=C(COc1ccccc1Cl)NNC(=O)c1cc(S(=O)(=O)N2CCOCC2)ccc1N1CCCC1,"inconclusive: 10 µM [inhibitor, partial curve]"
18,COc1ccc(O)c(C(=O)CC(=O)c2ccc(F)cc2)c1,active: 12.6 µM
19,O=S(=O)(NCc1ccncc1)c1ccc(S(=O)(=O)NCC2CCCO2)cc1 (stereo unspecified),"inconclusive: 1.03 µM [inhibitor, full curve]"
20,O=C(Nc1sc2c(c1C(=O)O)CCC2)c1cccc(Cl)c1,"inconclusive: 8.91 µM [inhibitor, partial curve]"
21,CCOC(=O)N1CCN(C(=O)c2cc(-c3ccncc3)nc3ccccc23)CC1,"inconclusive: 5.01 µM [inhibitor, partial curve, poor fit]"
22,COc1ccc(C(=O)/C=C/c2cn(CC(O)CN(CC(C)C)CC(C)C)c3ccccc23)cc1OC (stereo unspecified),"inconclusive: 31.6 µM [inhibitor, single point]"
